Test results taken from patent US4315010A, “Glaucine phosphate salts” (priority 1979, dated 1982).

Tested on: mice
Details: mouse, in vivo
Experimental: Physical dependency liability was evaluated in mice by the procedure of Saelens, et al., Arch. Int. Pharmacodynam, 190:213-218, 1971. In this procedure, mice are administered increasing doses of a test compound at intervals on two consecutive days. The last dosage on the second day is followed by intraperitoneal injection of the morphine antagonist, naloxone, at a dosage of 100 mg/kg, and the mice are observed for characteristic jumping behaviour indicative of opiate withdrawals or morphine antagonism. […].

SMILES: CN1CC[C@]23c4c5ccc(O)c4O[C@H]2[C@@H](O)C=C[C@H]3[C@H]1C5.O=S(=O)(O)O [morphine sulfate]
- mice jumping after naloxone treatment: 5 of 9
